Structures can show the parent of a compound that is named as a salt. The list shows a part of the results. Single values are uncertain, as repeats are few or missing.
tested on: M238R (matched melanoma line resistant to BRAF inhibitors); experiment: reduction in cell viability relative to untreated/vehicle; higher = more growth inhibition; settings: 200 nM; 72 h

**Q.** `Cc1cc(Nc2nc(N[C@@H](C)c3ccc(F)cc3)c(C#N)cc2F)n[nH]1` was tested. Which “reduction in cell viability” value did it give?
**A.** < 0%

**Q.** With `CCN(CC)CCOc1ccc(Nc2ncc3cc(-c4c(Cl)cccc4Cl)c(=O)n(C)c3n2)cc1` as the molecule, how does the “reduction in cell viability” value read?
**A.** 60.7%

**Q.** With `Cc1cc(C(C)(C)C)cc(C)c1CC1=NCCN1` [Xylometazoline hydrochloride] as the molecule, how does the “reduction in cell viability” value read?
**A.** < 0%

**Q.** How did the “reduction in cell viability” value turn out when `CCn1cc(C(=O)O)c(=O)c2cc(F)c(N3CCNC(C)C3)c(F)c21` (stereo not given) [Lomefloxacin hydrochloride] was run?
**A.** < 0%

**Q.** How did the “reduction in cell viability” value turn out when `C[C@]12CCC3=C4CCC(=O)C=C4CC[C@H]3[C@@H]1CC[C@@]2(O)CC#N` [Dienogest] was run?
**A.** < 0%

**Q.** For `CN(C)CCCN1c2ccccc2CCc2ccc(Cl)cc21` [Clomipramine], which “reduction in cell viability” value is on record?
**A.** < 0%

**Q.** For `O=C(NCCCCN1CCOCC1)c1cc2ccccc2o1`, which “reduction in cell viability” value is on record?
**A.** < 0%

**Q.** With `Cc1ccc(S(=O)(=O)Nc2cc(Cl)ccc2C(=O)Nc2nc(-c3ccccc3)cs2)cc1` as the molecule, how does the “reduction in cell viability” value read?
**A.** < 0%

**Q.** How did the “reduction in cell viability” value turn out when `C[C@@H](Oc1cc(-c2cnn(C3CCNCC3)c2)cnc1N)c1c(Cl)ccc(F)c1Cl` was run?
**A.** < 0%

**Q.** With `C/C=C(/C)C(=O)O[C@H]1C(C)=C[C@]23C(=O)[C@@H](C=C(CO)[C@@H](O)[C@]12O)[C@H]1[C@@H](C[C@H]3C)C1(C)C` [Ingenol mebutate] as the molecule, how does the “reduction in cell viability” value read?
**A.** 0.12%

**Q.** How did the “reduction in cell viability” value turn out when `CN(C)C(=O)C(CCN1CCC(O)(c2ccc(Cl)cc2)CC1)(c1ccccc1)c1ccccc1` [Loperamide] was run?
**A.** < 0%

**Q.** With `O=C1c2cccc(O)c2C(=O)c2c(O)cc(CO)cc21` [Aloe-emodin] as the molecule, how does the “reduction in cell viability” value read?
**A.** < 0%

**Q.** Which “reduction in cell viability” value does the source give for `CC1=C(/C=C/C(C)=C/C=C/C(C)=C/C(=O)O)C(C)(C)CCC1` [Tretinoin] here?
**A.** < 0%

**Q.** With `CC(C)[C@H](CO)Nc1nc(Nc2cccc(Cl)c2)c2ncn(C(C)C)c2n1` [Purvalanol A] as the molecule, how does the “reduction in cell viability” value read?
**A.** < 0%

**Q.** Which “reduction in cell viability” value does the source give for `O=S(=O)(O)c1ccc2cc(N=Nc3cc(S(=O)(=O)O)c4cccnc4c3O)ccc2c1` here?
**A.** < 0%

tested on: M249P (parental melanoma line); experiment: as above; settings: 200 nM; 72 h

**Q.** `CC[C@H](c1ccc(O)cc1)[C@@H](CC)c1ccc(O)cc1` [Hexestrol] was tested. Which “reduction in cell viability” value did it give?
**A.** < 0%

**Q.** With `CN(c1nccc(=O)[nH]1)C1CCN(c2nc3ccccc3n2Cc2ccc(F)cc2)CC1` [Mizolastine] as the molecule, how does the “reduction in cell viability” value read?
**A.** < 0%

**Q.** Which “reduction in cell viability” value does the source give for `COc1cc2nccc(Oc3ccc(NC(=O)Nc4cc(C)on4)c(Cl)c3)c2cc1OC` [Tivozanib] here?
**A.** < 0%

**Q.** With `COc1cc2nc(N3CCN(C(=O)c4ccco4)CC3)nc(N)c2cc1OC` [Prazosin hydrochloride] as the molecule, how does the “reduction in cell viability” value read?
**A.** < 0%

**Q.** How did the “reduction in cell viability” value turn out when `CC(C)c1ccc(Cn2ccc3c4c(N)nc(NC5CC5)nc4ccc32)cc1` was run?
**A.** 54.4%

**Q.** Which “reduction in cell viability” value does the source give for `COc1nccc(-c2c(-c3ccc(F)cc3)ncn2C2CCNCC2)n1` here?
**A.** < 0%

**Q.** Which “reduction in cell viability” value does the source give for `COc1nc(C)cnc1NS(=O)(=O)c1cccnc1-c1ccc(-c2nnco2)cc1` [Zibotentan] here?
**A.** < 0%

**Q.** How did the “reduction in cell viability” value turn out when `CCOC(=O)Nc1ccc(NCc2ccc(F)cc2)nc1N` [Flupirtine maleate] was run?
**A.** < 0%

**Q.** How did the “reduction in cell viability” value turn out when `O=C(NCC1CCCCN1)c1cc(OCC(F)(F)F)ccc1OCC(F)(F)F` (stereo not given) [Flecainide] was run?
**A.** < 0%

**Q.** With `CC(C(=O)O)c1cccc(C(=O)c2ccccc2)c1` (stereo not given) [Ketoprofen] as the molecule, how does the “reduction in cell viability” value read?
**A.** < 0%

**Q.** `CCc1cnn2c(NCc3ccc[n+]([O-])c3)cc(N3CCCC[C@H]3CCO)nc12` was tested. Which “reduction in cell viability” value did it give?
**A.** 69.3%

**Q.** `O=C(/C=C/c1cccnc1)NCCCCC1CCN(C(=O)c2ccccc2)CC1` [FK866 (APO866, Daporinad)] was tested. Which “reduction in cell viability” value did it give?
**A.** 84.2%

**Q.** How did the “reduction in cell viability” value turn out when `CC(C)NCC(O)COc1ccc(CCOCC2CC2)cc1` (stereo not given) [Betaxolol] was run?
**A.** < 0%

**Q.** For `Cc1cc(C(C)Nc2ccccc2)c2nc(N3CCOCC3)cc(=O)n2c1` (stereo not given), which “reduction in cell viability” value is on record?
**A.** < 0%

**Q.** How did the “reduction in cell viability” value turn out when `COc1cc([C@@H]2c3cc4c(cc3[C@@H](O[C@@H]3O[C@@H]5CO[C@@H](C)O[C@H]5[C@H](O)[C@H]3O)[C@H]3COC(=O)[C@H]23)OCO4)cc(OC)c1O` [Etoposide] was run?
**A.** 15.2%

**Q.** Which “reduction in cell viability” value does the source give for `NS(=O)(=O)OC[C@@H]1C[C@@H](n2ccc3c(N[C@H]4CCc5ccccc54)ncnc32)C[C@@H]1O` here?
**A.** 44.3%

**Q.** `OC(CCN1CCCCC1)(c1ccccc1)C1CC2C=CC1C2` (stereo not given) [Biperiden] was tested. Which “reduction in cell viability” value did it give?
**A.** < 0%

**Q.** `OC[C@H]1O[C@@H](n2cnc3c2N=CNC[C@H]3O)C[C@@H]1O` [Pentostatin] was tested. Which “reduction in cell viability” value did it give?
**A.** < 0%

**Q.** `CC1(C)O[C@@H]2C[C@H]3[C@@H]4C[C@H](F)C5=CC(=O)C=C[C@]5(C)[C@H]4[C@@H](O)C[C@]3(C)[C@]2(C(=O)CO)O1` [Flunisolide] was tested. Which “reduction in cell viability” value did it give?
**A.** < 0%

**Q.** Which “reduction in cell viability” value does the source give for `COc1cc2ncnc(Nc3ccc(F)c(Cl)c3)c2cc1NC(=O)/C=C/CN1CCCCC1` [Dacomitinib] here?
**A.** < 0%

**Q.** How did the “reduction in cell viability” value turn out when `COc1ccc(F)c(F)c1C(=O)c1cnc(NC2CCN(S(C)(=O)=O)CC2)nc1N` was run?
**A.** < 0%

**Q.** With `CC(C)C[C@@H](N)[C@H](O)C(=O)N[C@H](C(=O)N[C@H](C(=O)N[C@@H](CC(=O)O)C(=O)O)C(C)C)C(C)C` [Amastatin] as the molecule, how does the “reduction in cell viability” value read?
**A.** < 0%

**Q.** For `Nc1cc(C(F)(F)F)c(-c2cc(N3CCOCC3)nc(N3CCOCC3)n2)cn1` [BKM120 (NVP-BKM120, Buparlisib)], which “reduction in cell viability” value is on record?
**A.** < 0%

**Q.** `C[C@H](CCC(=O)O)[C@H]1CC[C@H]2[C@@H]3[C@H](O)C[C@@H]4C[C@H](O)CC[C@]4(C)[C@H]3CC[C@]12C` [Chenodeoxycholic acid] was tested. Which “reduction in cell viability” value did it give?
**A.** < 0%

**Q.** With `CN(C)[C@@H]1C(O)=C(C(N)=O)C(=O)[C@@]2(O)C(O)=C3C(=O)c4c(O)cccc4[C@@](C)(O)[C@H]3C[C@@H]12` [Tetracycline hydrochloride] as the molecule, how does the “reduction in cell viability” value read?
**A.** < 0%

**Q.** How did the “reduction in cell viability” value turn out when `Cc1cc(Nc2nc(N[C@@H](C)c3ccc(F)cc3)c(C#N)cc2F)n[nH]1` was run?
**A.** < 0%

**Q.** With `CCN(CC)CCOc1ccc(Nc2ncc3cc(-c4c(Cl)cccc4Cl)c(=O)n(C)c3n2)cc1` as the molecule, how does the “reduction in cell viability” value read?
**A.** 16.2%

**Q.** How did the “reduction in cell viability” value turn out when `Cc1cc(C(C)(C)C)cc(C)c1CC1=NCCN1` [Xylometazoline hydrochloride] was run?
**A.** < 0%

**Q.** With `CCn1cc(C(=O)O)c(=O)c2cc(F)c(N3CCNC(C)C3)c(F)c21` (stereo not given) [Lomefloxacin hydrochloride] as the molecule, how does the “reduction in cell viability” value read?
**A.** < 0%

**Q.** `C[C@]12CCC3=C4CCC(=O)C=C4CC[C@H]3[C@@H]1CC[C@@]2(O)CC#N` [Dienogest] was tested. Which “reduction in cell viability” value did it give?
**A.** < 0%

**Q.** Which “reduction in cell viability” value does the source give for `CN(C)CCCN1c2ccccc2CCc2ccc(Cl)cc21` [Clomipramine] here?
**A.** < 0%

**Q.** With `O=C(NCCCCN1CCOCC1)c1cc2ccccc2o1` as the molecule, how does the “reduction in cell viability” value read?
**A.** < 0%

**Q.** How did the “reduction in cell viability” value turn out when `Cc1ccc(S(=O)(=O)Nc2cc(Cl)ccc2C(=O)Nc2nc(-c3ccccc3)cs2)cc1` was run?
**A.** < 0%

**Q.** Which “reduction in cell viability” value does the source give for `C[C@@H](Oc1cc(-c2cnn(C3CCNCC3)c2)cnc1N)c1c(Cl)ccc(F)c1Cl` here?
**A.** < 0%

**Q.** For `C/C=C(/C)C(=O)O[C@H]1C(C)=C[C@]23C(=O)[C@@H](C=C(CO)[C@@H](O)[C@]12O)[C@H]1[C@@H](C[C@H]3C)C1(C)C` [Ingenol mebutate], which “reduction in cell viability” value is on record?
**A.** < 0%

**Q.** For `CN(C)C(=O)C(CCN1CCC(O)(c2ccc(Cl)cc2)CC1)(c1ccccc1)c1ccccc1` [Loperamide], which “reduction in cell viability” value is on record?
**A.** < 0%

**Q.** `O=C1c2cccc(O)c2C(=O)c2c(O)cc(CO)cc21` [Aloe-emodin] was tested. Which “reduction in cell viability” value did it give?
**A.** < 0%

**Q.** With `CC1=C(/C=C/C(C)=C/C=C/C(C)=C/C(=O)O)C(C)(C)CCC1` [Tretinoin] as the molecule, how does the “reduction in cell viability” value read?
**A.** < 0%

**Q.** With `CC(C)[C@H](CO)Nc1nc(Nc2cccc(Cl)c2)c2ncn(C(C)C)c2n1` [Purvalanol A] as the molecule, how does the “reduction in cell viability” value read?
**A.** < 0%

**Q.** Which “reduction in cell viability” value does the source give for `O=S(=O)(O)c1ccc2cc(N=Nc3cc(S(=O)(=O)O)c4cccnc4c3O)ccc2c1` here?
**A.** < 0%

From the supplement of paper PMC9015667
